Experimental data reported in article PMC12914543.
No constants are given. Whether binding was seen depends on the method and setting. In cells and extracts the contact can be indirect. Some binding calls cover weakened binding; strength is not graded here. One block for each molecule: values may come before it.

By UniProt entry, the sequences of proteins in these tests, tags left out. Residues count along the entry.
UniProt O15455, residues 24-904: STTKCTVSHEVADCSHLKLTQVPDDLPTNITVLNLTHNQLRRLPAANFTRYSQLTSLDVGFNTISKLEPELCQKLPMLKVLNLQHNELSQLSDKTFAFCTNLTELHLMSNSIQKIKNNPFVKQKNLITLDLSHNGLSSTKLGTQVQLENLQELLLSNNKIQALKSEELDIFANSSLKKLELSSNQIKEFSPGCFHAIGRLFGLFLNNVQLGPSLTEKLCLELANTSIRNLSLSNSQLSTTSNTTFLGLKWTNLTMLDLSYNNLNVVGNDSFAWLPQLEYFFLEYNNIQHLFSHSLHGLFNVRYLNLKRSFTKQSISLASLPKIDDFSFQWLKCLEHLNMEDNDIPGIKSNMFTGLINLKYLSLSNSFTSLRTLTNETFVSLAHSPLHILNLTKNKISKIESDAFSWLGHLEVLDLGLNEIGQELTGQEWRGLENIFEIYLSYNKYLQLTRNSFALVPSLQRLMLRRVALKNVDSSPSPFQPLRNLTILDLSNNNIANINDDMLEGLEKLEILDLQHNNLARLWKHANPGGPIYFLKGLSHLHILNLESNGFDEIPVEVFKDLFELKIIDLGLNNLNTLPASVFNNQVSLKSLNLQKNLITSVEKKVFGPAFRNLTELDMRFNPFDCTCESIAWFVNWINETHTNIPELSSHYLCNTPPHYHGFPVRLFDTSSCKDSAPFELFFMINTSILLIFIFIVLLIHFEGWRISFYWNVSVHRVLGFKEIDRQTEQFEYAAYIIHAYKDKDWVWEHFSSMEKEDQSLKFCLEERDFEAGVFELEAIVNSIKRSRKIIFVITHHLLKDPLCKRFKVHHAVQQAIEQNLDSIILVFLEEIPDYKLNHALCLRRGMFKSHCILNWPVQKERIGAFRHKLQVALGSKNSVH

What was measured:
[1] = target: T1, high-mobility group box 3 (HMGB3) (human (endogenous in ECA109 and EC9706)) (UniProt O15347); assay: co-IP; reciprocal co-IP of endogenous proteins; non-denaturing lysates of ECA109 and EC9706 cells, anti-HMGB3 or anti-TLR3 antibody, protein A/G Sepharose overnight at 4 °C, Western blot
T1 sequence: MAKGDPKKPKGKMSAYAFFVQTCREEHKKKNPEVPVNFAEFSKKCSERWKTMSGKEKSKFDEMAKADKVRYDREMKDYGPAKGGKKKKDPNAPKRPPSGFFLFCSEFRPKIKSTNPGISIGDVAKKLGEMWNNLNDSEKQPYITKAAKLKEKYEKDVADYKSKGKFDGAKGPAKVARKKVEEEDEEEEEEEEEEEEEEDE

[2] = target: His-tagged wild-type TLR3 (UniProt O15455); assay: co-IP; co-IP with His-tagged wild-type or mutant TLR3 from expression plasmids; anti-His-tag antibody listed for Co-IP; Western blot
[3] = target: toll-like receptor 3 (TLR3) (human (endogenous in ECA109 and EC9706)) (UniProt O15455); assay: co-IP; reciprocal co-IP of endogenous proteins; non-denaturing lysates of ECA109 and EC9706 cells, anti-HMGB3 or anti-TLR3 antibody, protein A/G Sepharose overnight at 4 °C, Western blot

binding [1]: binds
Molecule: toll-like receptor 3 (TLR3) (from UniProt O15455 24-904)

binding [2]: binds
binding [3]: binds
B1: high-mobility group box 3 (HMGB3) (protein, UniProt O15347 1-200)
chain: T1 sequence
